Source: patent US20100009868

Columns and labels:
[1] = test system: alpha-thrombin (Homo sapiens); test: binding assay; details: CITED published apparent Kd; purified native protein; folded or branched DNA
IgE = test: competition with a labelled probe; details: dT7 replaced by 3-methylisoxanthopterin (3MI); IgE control showed no competition of binding to aptamer array; purified native protein; label: 3MI at position 7; folded or branched DNA; variant of TBA 15-mer

Sequence | Kd [1] | binding result (IgE)
GGTTGGTGTGGTTGG [TBA 15-mer] | 10 nM | 
GGTTGGTGTGGTTGG [3MI-TBA signaling aptamer on DNA tile array] |  | no binding

For at least one entry, the source does not settle the construct or the ends of the probe. For some assays here: No signal at the amounts used counts as a negative.
